PubChem BioAssay AID1259405 – NCATS, 2018
The deposit covers about 50,000 reagents; shown is a part drawn at random. About 4,000 of all reagents (8%) count as active. 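Mouse siRNA library applied to hamster cells; one well for each siRNA.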 A number with no mark means an inactive call. The numbers tell different reagents against one gene apart.

Assay: 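Silenced genes that increase secreted GFP made by CHO cells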 (primary screen)
Cells: Chinese hamster CHO-K1 ovary cells with stable secreted eGFP expression
Reagents: single siRNA against mouse genes, 0.8 pmol siRNA per well (2 µl of 400 nM stock)
Timing: 3 days
Detection: 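Per-well intracellular GFP measured by laser scanning cytometry, plus viability from ATP luminescence, each relative to plate median of non-targeting control wells, in %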
Reading the numbers: GFP, % of control: higher = more GFP per well, higher productivity; viability (ATP), % of control: higher = more viable cells (more ATP)
Call rule: 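Called active when intracellular GFP, relative to negative control, is at or above 120%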

Gene | reagent no. | GFP, % of control | viability (ATP), % of control
Clec2m (C-type lectin domain family 2, member m) | 1 | 92 | 95.5
Clec2m (C-type lectin domain family 2, member m) | 2 | 62.8 | 70.4
Clec2m (C-type lectin domain family 2, member m) | 3 | 38.1 | 38.2
Tbc1d16 (TBC1 domain family, member 16) | 1 | 97.2 | 80.3
Tbc1d16 (TBC1 domain family, member 16) | 2 | 115 | 104
Tbc1d16 (TBC1 domain family, member 16) | 3 | 36.7 | 30.1
Men1 (multiple endocrine neoplasia 1) | 1 | 87.9 | 87.3
Men1 (multiple endocrine neoplasia 1) | 2 | 159 (active) | 68.1
Men1 (multiple endocrine neoplasia 1) | 3 | 94.7 | 52.3
Smg6 (SMG6 nonsense mediated mRNA decay factor) | 1 | 105 | 87.4
Smg6 (SMG6 nonsense mediated mRNA decay factor) | 2 | 90.9 | 40.4
Smg6 (SMG6 nonsense mediated mRNA decay factor) | 3 | 98.3 | 82.8
E230015B07Rik (RIKEN cDNA E230015B07 gene) | 1 | 59.1 | 64.7
E230015B07Rik (RIKEN cDNA E230015B07 gene) | 2 | 61.3 | 52
E230015B07Rik (RIKEN cDNA E230015B07 gene) | 3 | 94.8 | 46.9
Atf1 (activating transcription factor 1) | 1 | 91 | 85.8
Atf1 (activating transcription factor 1) | 2 | 80.9 | 68.4
Amhr2 (anti-Mullerian hormone type 2 receptor) | 1 | 94.1 | 92.1
Snrnp200 (small nuclear ribonucleoprotein 200 (U5)) | 1 | 96.9 | 79.9
Snrnp200 (small nuclear ribonucleoprotein 200 (U5)) | 2 | 115 | 90.2
Snrnp200 (small nuclear ribonucleoprotein 200 (U5)) | 3 | 96.3 | 85.8
Zswim2 (zinc finger SWIM-type containing 2) | 1 | 80.4 | 92.8
Zswim2 (zinc finger SWIM-type containing 2) | 2 | 105 | 54.4
Zswim2 (zinc finger SWIM-type containing 2) | 3 | 96.6 | 115
Nub1 (negative regulator of ubiquitin-like proteins 1) | 1 | 51 | 62.7
Nub1 (negative regulator of ubiquitin-like proteins 1) | 2 | 83.4 | 90.8
Nub1 (negative regulator of ubiquitin-like proteins 1) | 3 | 88.8 | 98.8
Tas2r124 (taste receptor, type 2, member 124) | 1 | 56.3 | 71
Tas2r124 (taste receptor, type 2, member 124) | 2 | 101 | 91
Tas2r124 (taste receptor, type 2, member 124) | 3 | 83.1 | 78.8
Supt5 (suppressor of Ty 5, DSIF elongation factor subunit) | 1 | 77.7 | 69.2
Supt5 (suppressor of Ty 5, DSIF elongation factor subunit) | 2 | 87.7 | 94.2
Psen2 (presenilin 2) | 1 | 62.4 | 67.8
Psen2 (presenilin 2) | 2 | 76.5 | 58.7
Psen2 (presenilin 2) | 3 | 108 | 95.8
Tmem121 (transmembrane protein 121) | 1 | 74.6 | 65.8
Tmem121 (transmembrane protein 121) | 2 | 57.2 | 65.5
Tmem121 (transmembrane protein 121) | 3 | 85 | 97.7
Rbm26 (RNA binding motif protein 26) | 1 | 68.1 | 80
Rbm26 (RNA binding motif protein 26) | 2 | 69.2 | 87.6
Rbm26 (RNA binding motif protein 26) | 3 | 62.5 | 61.1
Dohh (deoxyhypusine hydroxylase/monooxygenase) | 1 | 99.3 | 92.2
Dohh (deoxyhypusine hydroxylase/monooxygenase) | 2 | 22.8 | 39.8
Dohh (deoxyhypusine hydroxylase/monooxygenase) | 3 | 86.4 | 91.3
Neurl4 (neuralized E3 ubiquitin protein ligase 4) | 1 | 77.5 | 66.9
Neurl4 (neuralized E3 ubiquitin protein ligase 4) | 2 | 47.1 | 59.4
Neurl4 (neuralized E3 ubiquitin protein ligase 4) | 3 | 48 | 51.5
Atg4d (autophagy related 4D, cysteine peptidase) | 1 | 83.3 | 56.6
Atg4d (autophagy related 4D, cysteine peptidase) | 2 | 107 | 109
Atg4d (autophagy related 4D, cysteine peptidase) | 3 | 137 (active) | 95.4
Morn5 (MORN repeat containing 5) | 1 | 84.7 | 88.5
Morn5 (MORN repeat containing 5) | 2 | 60.3 | 60.7
Morn5 (MORN repeat containing 5) | 3 | 109 | 93
Adam30 (a disintegrin and metallopeptidase domain 30) | 1 | 94.8 | 82.5
Adam30 (a disintegrin and metallopeptidase domain 30) | 2 | 106 | 87
Adam30 (a disintegrin and metallopeptidase domain 30) | 3 | 98.3 | 82.2
Itgb1bp1 (integrin beta 1 binding protein 1) | 1 | 73.5 | 63.2
Itgb1bp1 (integrin beta 1 binding protein 1) | 2 | 85.5 | 79.5
Itgb1bp1 (integrin beta 1 binding protein 1) | 3 | 58.1 | 69.6
Tmem209 (transmembrane protein 209) | 1 | 51.5 | 61.3
Tmem209 (transmembrane protein 209) | 2 | 50.9 | 48.3
Tmem209 (transmembrane protein 209) | 3 | 65.7 | 75.7
Rhox6 (reproductive homeobox 6) | 1 | 54.9 | 60.4
Rhox6 (reproductive homeobox 6) | 2 | 27 | 31.1
Rhox6 (reproductive homeobox 6) | 3 | 125 (active) | 112
Adipor1 (adiponectin receptor 1) | 1 | 87.4 | 58
Adipor1 (adiponectin receptor 1) | 2 | 66.5 | 59.1
Adipor1 (adiponectin receptor 1) | 3 | 84.7 | 67.8
Rps25 (ribosomal protein S25) | 1 | 123 (active) | 98.3
Rps25 (ribosomal protein S25) | 2 | 178 (active) | 72.7
Rps25 (ribosomal protein S25) | 3 | 56.4 | 75.4
Or51e2 (olfactory receptor family 51 subfamily E member 2) | 1 | 101 | 80
Or51e2 (olfactory receptor family 51 subfamily E member 2) | 2 | 110 | 104
Or51e2 (olfactory receptor family 51 subfamily E member 2) | 3 | 49.4 | 44.3
Endog (endonuclease G) | 1 | 106 | 89.4
Endog (endonuclease G) | 2 | 83.7 | 95.2
Endog (endonuclease G) | 3 | 62.8 | 87.2
Vmn2r-ps11 (vomeronasal 2, receptor, pseudogene 11) | 1 | 73 | 89.8
Vmn2r-ps11 (vomeronasal 2, receptor, pseudogene 11) | 2 | 95.2 | 88.8
Vmn2r-ps11 (vomeronasal 2, receptor, pseudogene 11) | 3 | 58.2 | 84.7
Mcmbp (minichromosome maintenance complex binding protein) | 1 | 82.5 | 90.8
Mcmbp (minichromosome maintenance complex binding protein) | 2 | 37.4 | 36.2
Mcmbp (minichromosome maintenance complex binding protein) | 3 | 57.8 | 66.2
Erap1 (endoplasmic reticulum aminopeptidase 1) | 1 | 115 | 121
Erap1 (endoplasmic reticulum aminopeptidase 1) | 2 | 70.9 | 76.7
Erap1 (endoplasmic reticulum aminopeptidase 1) | 3 | 74.9 | 67.3
Sult1b1 (sulfotransferase family 1B, member 1) | 1 | 116 | 112
Sult1b1 (sulfotransferase family 1B, member 1) | 2 | 78 | 76.6
Sult1b1 (sulfotransferase family 1B, member 1) | 3 | 105 | 98.1
S1pr1 (sphingosine-1-phosphate receptor 1) | 1 | 121 (active) | 110
S1pr1 (sphingosine-1-phosphate receptor 1) | 2 | 74.1 | 62.3
S1pr1 (sphingosine-1-phosphate receptor 1) | 3 | 65.7 | 76.5
Rasgrp4 (RAS guanyl releasing protein 4) | 1 | 73.5 | 85.9
Rasgrp4 (RAS guanyl releasing protein 4) | 2 | 75.4 | 84.4
Rasgrp4 (RAS guanyl releasing protein 4) | 3 | 24.4 | 32.6
Slc5a6 | 1 | 52.9 | 102
Slc5a6 | 2 | 74.6 | 70.2
Slc5a6 | 3 | 81 | 85.1
Rufy3 (RUN and FYVE domain containing 3) | 1 | 56.5 | 65.2
Rufy3 (RUN and FYVE domain containing 3) | 2 | 86.3 | 87
Rufy3 (RUN and FYVE domain containing 3) | 3 | 122 (active) | 75.3
Endou (endonuclease, polyU-specific) | 1 | 117 | 66.2
Endou (endonuclease, polyU-specific) | 2 | 91.6 | 71.6
Endou (endonuclease, polyU-specific) | 3 | 102 | 83.9
Creb3l4 (cAMP responsive element binding protein 3-like 4) | 1 | 47.7 | 32.7
Creb3l4 (cAMP responsive element binding protein 3-like 4) | 2 | 52.3 | 52.9
Creb3l4 (cAMP responsive element binding protein 3-like 4) | 3 | 95.1 | 120

In a second layout: entries from further up.
| Gene | reagent no. | GFP, % of control | viability (ATP), % of control |
| --- | --- | --- | --- |
| Rps25 (ribosomal protein S25) | 2 | 178 (active) | 72.7 |
| Rps25 (ribosomal protein S25) | 3 | 56.4 | 75.4 |
| Or51e2 (olfactory receptor family 51 subfamily E member 2) | 1 | 101 | 80 |
| Or51e2 (olfactory receptor family 51 subfamily E member 2) | 2 | 110 | 104 |
| Or51e2 (olfactory receptor family 51 subfamily E member 2) | 3 | 49.4 | 44.3 |
| Endog (endonuclease G) | 1 | 106 | 89.4 |
| Endog (endonuclease G) | 2 | 83.7 | 95.2 |
| Endog (endonuclease G) | 3 | 62.8 | 87.2 |
| Vmn2r-ps11 (vomeronasal 2, receptor, pseudogene 11) | 1 | 73 | 89.8 |
| Vmn2r-ps11 (vomeronasal 2, receptor, pseudogene 11) | 2 | 95.2 | 88.8 |
| Vmn2r-ps11 (vomeronasal 2, receptor, pseudogene 11) | 3 | 58.2 | 84.7 |
| Mcmbp (minichromosome maintenance complex binding protein) | 1 | 82.5 | 90.8 |
| Mcmbp (minichromosome maintenance complex binding protein) | 2 | 37.4 | 36.2 |
